This assay concerns isolated rabbit aortic strip. In words: inhibition of norepinephrine-induced contractions of isolated rabbit aortic strip potentiated by ouabain. The class given is cell-based. The conditions noted are these: Oryctolagus cuniculus, read-out: concentration at which norepinephrine-induced contractions are inhibited.

Structures are written as SMILES.

For the compound `COC(=O)C1=C(C)NC(C)=C(C(=O)OC)C1c1ccccc1[N+](=O)[O-]` [Compound R2, Dimethyl 1,4-dihydro-2,6-dimethyl-4-(2-nitrophenyl)-3,5-dicarboxylate, reference compound], the minimal effective concentration is over 0.1 µM.

Values taken from patent US4705786A, “Novel oxadiazolyl-1,4-dihydropyridines useful as antihypertensive agents” (Sumitomo Pharmaceuticals Company, Limited, priority 1984, dated 1987).
